The results in this text go back to PMC12241633, “Irinotecan alleviates chemoresistance to anthracyclines through the inhibition of AARS1-mediated BLM lactylation and homologous recombination repair” (Signal Transduction and Targeted Therapy, 2025).

The chains behind the UniProt entries cited, without tags or fusion partners. Where a name states a change or a piece, a line headed by the entry shows the natural chain unless it says otherwise.
UniProt P54132: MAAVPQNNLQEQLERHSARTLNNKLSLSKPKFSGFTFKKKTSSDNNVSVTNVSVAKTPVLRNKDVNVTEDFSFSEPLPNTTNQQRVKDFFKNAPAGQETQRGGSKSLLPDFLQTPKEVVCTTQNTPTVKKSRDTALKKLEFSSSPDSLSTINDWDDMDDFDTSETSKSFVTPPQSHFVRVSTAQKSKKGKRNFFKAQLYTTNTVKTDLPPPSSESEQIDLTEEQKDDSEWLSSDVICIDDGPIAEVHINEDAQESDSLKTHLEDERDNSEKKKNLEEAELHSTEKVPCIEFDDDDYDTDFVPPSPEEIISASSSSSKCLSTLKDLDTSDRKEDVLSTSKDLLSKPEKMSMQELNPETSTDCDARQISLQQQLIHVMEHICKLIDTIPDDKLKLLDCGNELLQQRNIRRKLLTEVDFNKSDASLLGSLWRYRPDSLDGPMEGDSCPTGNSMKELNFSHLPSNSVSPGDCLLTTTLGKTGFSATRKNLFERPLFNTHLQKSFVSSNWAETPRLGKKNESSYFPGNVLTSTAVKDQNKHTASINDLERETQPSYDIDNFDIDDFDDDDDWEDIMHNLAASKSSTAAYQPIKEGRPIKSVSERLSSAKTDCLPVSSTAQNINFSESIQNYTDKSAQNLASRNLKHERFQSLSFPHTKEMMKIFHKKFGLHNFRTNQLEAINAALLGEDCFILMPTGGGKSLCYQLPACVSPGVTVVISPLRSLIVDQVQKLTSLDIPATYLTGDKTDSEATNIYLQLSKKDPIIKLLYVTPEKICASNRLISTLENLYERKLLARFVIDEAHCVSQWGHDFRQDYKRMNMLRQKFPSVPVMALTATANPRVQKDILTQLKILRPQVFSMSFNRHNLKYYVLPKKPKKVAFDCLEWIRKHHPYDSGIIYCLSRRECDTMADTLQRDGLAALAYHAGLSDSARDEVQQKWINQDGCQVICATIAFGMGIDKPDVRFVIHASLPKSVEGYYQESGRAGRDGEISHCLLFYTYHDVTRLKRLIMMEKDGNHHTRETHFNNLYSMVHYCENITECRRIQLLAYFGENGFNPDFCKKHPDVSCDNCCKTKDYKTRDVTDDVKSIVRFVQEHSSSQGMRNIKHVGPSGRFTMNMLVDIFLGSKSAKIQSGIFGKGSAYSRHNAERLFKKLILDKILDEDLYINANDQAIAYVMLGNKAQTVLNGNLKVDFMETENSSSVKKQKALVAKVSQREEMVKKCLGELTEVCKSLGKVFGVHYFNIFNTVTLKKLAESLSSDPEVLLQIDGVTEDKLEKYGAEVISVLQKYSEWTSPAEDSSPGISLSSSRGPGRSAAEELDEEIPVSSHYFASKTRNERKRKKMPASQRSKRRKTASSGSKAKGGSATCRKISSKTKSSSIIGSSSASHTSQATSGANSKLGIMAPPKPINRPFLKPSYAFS

These are yes or no findings as the source states them, for the method shown. Binding seen in cells or lysates may run through a third protein. Some binding calls cover weakened binding; strength is not graded here.

This assay has as its target HA-tagged K24R BLM (human) (UniProt P54132). Put plainly: co-IP; anti-HA IP of HA-BLM (WT or K24R) from E-resistant-BKO UM-UC-3 lysates in NP-40 buffer, 4 °C, protein A/G magnetic beads; endogenous partners detected by western blot; cells untreated or treated with 20 mM sodium lactate or 20 mM sodium oxamate for 24 h, or with AARS1 overexpression or knockdown. (In general: In western blotting, separated proteins are transferred to a membrane and probed.)

B1: RAD54 (protein, UniProt Q92698 1-747)
chain: MRRSLAPSQLAKRKPEGRSCDDEDWQPGLVTPRKRKSSSETQIQECFLSPFRKPLSQLTNQPPCLDSSQHEAFIRSILSKPFKVPIPNYQGPLGSRALGLKRAGVRRALHDPLEKDALVLYEPPPLSAHDQLKLDKEKLPVHVVVDPILSKVLRPHQREGVKFLWECVTSRRIPGSHGCIMADEMGLGKTLQCITLMWTLLRQSPECKPEIDKAVVVSPSSLVKNWYNEVGKWLGGRIQPLAIDGGSKDEIDQKLEGFMNQRGARVSSPILIISYETFRLHVGVLQKGSVGLVICDEGHRLKNSENQTYQALDSLNTSRRVLISGTPIQNDLLEYFSLVHFVNSGILGTAHEFKKHFELPILKGRDAAASEADRQLGEERLRELTSIVNRCLIRRTSDILSKYLPVKIEQVVCCRLTPLQTELYKRFLRQAKPAEELLEGKMSVSSLSSITSLKKLCNHPALIYDKCVEEEDGFVGALDLFPPGYSSKALEPQLSGKMLVLDYILAVTRSRSSDKVVLVSNYTQTLDLFEKLCRARRYLYVRLDGTMSIKKRAKVVERFNSPSSPDFVFMLSSKAGGCGLNLIGANRLVMFDPDWNPANDEQAMARVWRDGQKKTCYIYRLLSAGTIEEKIFQRQSHKKALSSCVVDEEQDVERHFSLGELKELFILDEASLSDTHDRLHCRRCVNSRQIRPPPDGSDCTSDLAGWNHCTDKWGLRDEVLQAAWDAASTAITFVFHQRSHEEQRGLR
Take B1: the binding entry was “binds”.

B2: DNA2 (protein, UniProt P51530 1-1060)
chain: MEQLNELELLMEKSFWEEAELPAELFQKKVVASFPRTVLSTGMDNRYLVLAVNTVQNKEGNCEKRLVITASQSLENKELCILRNDWCSVPVEPGDIIHLEGDCTSDTWIIDKDFGYLILYPDMLISGTSIASSIRCMRRAVLSETFRSSDPATRQMLIGTVLHEVFQKAINNSFAPEKLQELAFQTIQEIRHLKEMYRLNLSQDEIKQEVEDYLPSFCKWAGDFMHKNTSTDFPQMQLSLPSDNSKDNSTCNIEVVKPMDIEESIWSPRFGLKGKIDVTVGVKIHRGYKTKYKIMPLELKTGKESNSIEHRSQVVLYTLLSQERRADPEAGLLLYLKTGQMYPVPANHLDKRELLKLRNQMAFSLFHRISKSATRQKTQLASLPQIIEEEKTCKYCSQIGNCALYSRAVEQQMDCSSVPIVMLPKIEEETQHLKQTHLEYFSLWCLMLTLESQSKDNKKNHQNIWLMPASEMEKSGSCIGNLIRMEHVKIVCDGQYLHNFQCKHGAIPVTNLMAGDRVIVSGEERSLFALSRGYVKEINMTTVTCLLDRNLSVLPESTLFRLDQEEKNCDIDTPLGNLSKLMENTFVSKKLRDLIIDFREPQFISYLSSVLPHDAKDTVACILKGLNKPQRQAMKKVLLSKDYTLIVGMPGTGKTTTICTLVRILYACGFSVLLTSYTHSAVDNILLKLAKFKIGFLRLGQIQKVHPAIQQFTEQEICRSKSIKSLALLEELYNSQLIVATTCMGINHPIFSRKIFDFCIVDEASQISQPICLGPLFFSRRFVLVGDHQQLPPLVLNREARALGMSESLFKRLEQNKSAVVQLTVQYRMNSKIMSLSNKLTYEGKLECGSDKVANAVINLRHFKDVKLELEFYADYSDNPWLMGVFEPNNPVCFLNTDKVPAPEQVEKGGVSNVTEAKLIVFLTSIFVKAGCSPSDIGIIAPYRQQLKIINDLLARSIGMVEVNTVDKYQGRDKSIVLVSFVRSNKDGTVGELLKDWRRLNVAITRAKHKLILLGCVPSLNCYPPLEKLLNHLNSEKLIIDLPSREHESLCHILGDFQRE
As for B2, the binding result was “binds”.
